Laboratory results: PubChem BioAssay AID743121 (NCATS, 2013)
Here is a random part of about 26,000 reagents. In the full data, 167 (0.63%) are marked active. 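Calls are per gene from RSA p-values that are not deposited; an individual active-marked siRNA can sensitise only weakly.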 The numbers tell different reagents against one gene apart. Further read-outs or replicates are left out here.

Aim: 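Genes whose silencing strengthens cell killing by camptothecin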 (primary screen)
Cell system: MDA-MB-231 cells, a human breast cancer line
Knock-down reagent: single siRNA against human genes, 20 nM siRNA (0.8 pmol per well)
Timing: 120 h (drug added 48 h after transfection, read 72 h later)
Challenge: camptothecin 20 nM (about EC30) for 72 h; vehicle 0.1% DMSO in parallel plates
Read-out: 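Cell viability by ATP luminescence (CellTiter-Glo) as % of non-targeting siRNA wells, and the log2 ratio of viability without drug over viability with camptothecin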
Direction: log2 vehicle/camptothecin viability: higher = stronger sensitisation to camptothecin; viability with camptothecin: higher = more viable cells
Units: viability with camptothecin in % of control
Active means: 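Active genes have an RSA gene-level p-value below 0.001, computed from the ratios of their separate siRNAs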

Against LEFTY1 #1 the deposit lists log2 vehicle/camptothecin viability -0.00838; viability with camptothecin 19.9; inactive.
Silencing of LEFTY1 #2 came out at: log2 vehicle/camptothecin viability -0.147; viability with camptothecin 115; inactive.
Knock-down of LEFTY1 #3 came out at: log2 vehicle/camptothecin viability -0.0201; viability with camptothecin 32.7; inactive.
CTRL #1 scored log2 vehicle/camptothecin viability 0.112; viability with camptothecin 91.3; inactive.
CTRL #2 showed log2 vehicle/camptothecin viability 0.302; viability with camptothecin 22.8; inactive.
Against CTRL #3, the entry reads log2 vehicle/camptothecin viability -0.354; viability with camptothecin 94.7; inactive.
Knock-down of CTRL #4 gave: log2 vehicle/camptothecin viability -0.478; viability with camptothecin 95.8; inactive.
For THUMPD2 #1, the values are log2 vehicle/camptothecin viability -0.438; viability with camptothecin 48.5; inactive.
THUMPD2 #2 gave log2 vehicle/camptothecin viability 0.139; viability with camptothecin 53.9; inactive.
Knock-down of THUMPD2 #3 gave: log2 vehicle/camptothecin viability -0.122; viability with camptothecin 110; inactive.
After knock-down of THUMPD2 #4 the results were log2 vehicle/camptothecin viability 0.368; viability with camptothecin 51.9; inactive.
Silencing of KCNE3 #1 resulted in: log2 vehicle/camptothecin viability -0.246; viability with camptothecin 106; inactive.
KCNE3 #2 gave log2 vehicle/camptothecin viability 0.588; viability with camptothecin 42; inactive.
Knock-down of KCNE3 #3 gave: log2 vehicle/camptothecin viability -0.241; viability with camptothecin 93.7; inactive.
Against KCNE3 #4, the entry reads log2 vehicle/camptothecin viability -0.413; viability with camptothecin 109; inactive.
After knock-down of CD84 #1 the results were log2 vehicle/camptothecin viability -0.512; viability with camptothecin 100; inactive.
Depletion of CD84 #2 gave: log2 vehicle/camptothecin viability -0.206; viability with camptothecin 74.8; inactive.
After knock-down of CD84 #3, the screen gave log2 vehicle/camptothecin viability -0.402; viability with camptothecin 38.6; inactive.
CD84 #4 scored log2 vehicle/camptothecin viability -0.0347; viability with camptothecin 82.4; inactive.
With knock-down of GJA3 #1, the screen gave log2 vehicle/camptothecin viability -0.532; viability with camptothecin 49.3; inactive.
After knock-down of GJA3 #2 the results were log2 vehicle/camptothecin viability -0.0392; viability with camptothecin 93.1; inactive.
After knock-down of GJA3 #3, the screen gave log2 vehicle/camptothecin viability -0.218; viability with camptothecin 77.5; inactive.
Silencing of GJA3 #4 came out at: log2 vehicle/camptothecin viability -0.566; viability with camptothecin 51.4; inactive.
With knock-down of CXCL5 #1 the results were log2 vehicle/camptothecin viability -0.0576; viability with camptothecin 94.7; inactive.
CXCL5 #2 gave log2 vehicle/camptothecin viability -0.063; viability with camptothecin 93.9; inactive.
Depletion of CXCL5 #3 came out at: log2 vehicle/camptothecin viability -0.248; viability with camptothecin 71.2; inactive.
PPP2R3B #1 scored log2 vehicle/camptothecin viability -0.502; viability with camptothecin 47.9; inactive.
PPP2R3B #2 gave log2 vehicle/camptothecin viability -0.283; viability with camptothecin 55.2; inactive.
Silencing of PPP2R3B #3 came out at: log2 vehicle/camptothecin viability -0.016; viability with camptothecin 98.4; inactive.
Knock-down of PPP2R3B #4 gave: log2 vehicle/camptothecin viability -0.848; viability with camptothecin 54.5; inactive.
After knock-down of DKC1 #1 the results were log2 vehicle/camptothecin viability -0.268; viability with camptothecin 92.1; inactive.
Against DKC1 #2, the entry reads log2 vehicle/camptothecin viability -0.785; viability with camptothecin 95.4; inactive.
After knock-down of DKC1 #3 the results were log2 vehicle/camptothecin viability -0.395; viability with camptothecin 99.6; inactive.
For DKC1 #4, the values are log2 vehicle/camptothecin viability -0.341; viability with camptothecin 83.3; inactive.
After knock-down of PROK1 #1 the results were log2 vehicle/camptothecin viability -0.228; viability with camptothecin 48.9; inactive.
Knock-down of PROK1 #2 came out at: log2 vehicle/camptothecin viability -0.391; viability with camptothecin 90.4; inactive.
After knock-down of PROK1 #3 the results were log2 vehicle/camptothecin viability 0.161; viability with camptothecin 79.3; inactive.
PROK1 #4 showed log2 vehicle/camptothecin viability 0.863; viability with camptothecin 40.4; inactive.
